Data from the supplement of paper PMC8104966.
The other results are listed elsewhere or left out. Single values are uncertain here, since repeats match poorly.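 U2OS cells expressing ACE2 were combined with U2OS cells expressing full-length spike, and imaging quantified fusion as the fraction of nuclei displaying both cell types' fluorescent markers. Non-toxic compounds with a fusion z-score under -3, i.e., over three standard deviations below the plate's DMSO wells, are called inhibitory hits.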

system: U2OS ACE2 x SARS-CoV-2 spike co-culture; assay: cell-cell fusion (fraction fused) z-score vs plate DMSO control; higher = more fusion; conditions: 30 µM; 5 h; toxicity class: non-toxic, passed QC

| SMILES | cell-cell fusion (z-score) |
| --- | --- |
| CSc1nc(N)c2ncn([C@@H]3O[C@H](COP(=O)([O-])OP(=O)([O-])[O-])[C@H](O)C3O)c2n1.[Na+].[Na+].[Na+] (stereo partly drawn) | inactive: 1.67 |
| CCc1c(C)[nH]c2c1C(=O)C(CN1CCOCC1)CC2.Cl (stereo not drawn) | inactive: 0.333 |
| CCc1c(C)[nH]c2c1C(=O)C(CN1CCOCC1)CC2.Cl (stereo not drawn) [Molindone hydrochloride] | inactive: 3.68 |
| CC(C)NP(=O)(NC(C)C)OP(=O)(NC(C)C)NC(C)C [Tetraisopropyl pyrophosphoramide] | inactive: 1.65 |
| COc1cc2nccc(Oc3ccc(NC(=O)C4(C(=O)Nc5ccc(F)cc5)CC4)cc3)c2cc1OC.Cl | active: -3.67 |
| COC1=C[C@]23CCCN2CCc2cc4c(cc2[C@@H]3[C@@H]1O)OCO4 [Cephalotaxine] | inactive: 0.877 |
| CCC[C@H](NC(=O)[C@@H]1[C@H]2CCC[C@H]2CN1C(=O)[C@@H](NC(=O)[C@@H](NC(=O)c1cnccn1)C1CCCCC1)C(C)(C)C)C(=O)C(=O)NC1CC1 [Telaprevir] | inactive: 2.09 |
| CCCCCCCCCCCCCCCCCCOCC(O)CO (stereo not drawn) | inactive: 1.73 |
| C[C@@H]1C[C@H]2[C@@H]3CCC4=CC(=O)C=C[C@]4(C)[C@@]3(F)[C@@H](O)C[C@]2(C)[C@@]1(O)C(=O)COP(=O)([O-])[O-].[Na+].[Na+] [Dexamethasone Sodium Phosphate] | inactive: 2.09 |
| Cl.O=C1CN2Cc3c(ccc(Cl)c3Cl)N=C2N1 [Anagrelide HCl] | inactive: 1.58 |
| CS(=O)(=O)c1cccc(CNc2nc(Nc3ccc4c(c3)CCC(=O)N4)ncc2C(F)(F)F)c1 | inactive: -0.637 |
| CCOC(=O)Nc1nc2ccccc2[nH]1 | inactive: 4.01 |
| COCC1=C(C(=O)OC(C)OC(=O)OC(C)C)N2C(=O)[C@@H](NC(=O)/C(=N/OC)c3csc(N)n3)[C@H]2SC1 (stereo partly drawn) | inactive: 2.72 |
| c1ccc(-c2ccc(C(c3ccccc3)n3ccnc3)cc2)cc1 (stereo not drawn) | inactive: -1.55 |
| Cl.NCc1ccc(S(N)(=O)=O)cc1 [Mafenide hydrochloride] | inactive: 2.9 |
| NC(=O)C1CCCN1C(=O)C(Cc1c[nH]cn1)NC(=O)C1CCC(=O)N1 (stereo not drawn) | inactive: 1.46 |
| Cc1cccc(C)c1OCC(C)N.Cl (stereo not drawn) [Mexiletine hydrochloride] | inactive: 2.16 |
| Br.CN1Cc2sccc2C(c2ccc(O)c(O)c2)C1 (stereo not drawn) | inactive: 0.578 |
| Cn1c(=O)c2[nH]c(C3CCCC3)nc2n(C)c1=O [8-Cyclopentyl-1,3-dimethylxanthine] | inactive: 3.78 |
| Cl.Cl.Fc1ccc(C(c2ccc(F)cc2)N2CCN(C/C=C/c3ccccc3)CC2)cc1 [Flunarizine dihydrochloride] | inactive: 4.19 |
| Cl.Cl.Fc1ccc(C(c2ccc(F)cc2)N2CCN(C/C=C/c3ccccc3)CC2)cc1 | inactive: 2.91 |
| COc1cc2c(cc1OC)[C@@]13CCN4CC5=CCOC6CC(=O)N2C1[C@H]6[C@H]5C[C@H]43 (stereo partly drawn) | inactive: 2.58 |
| Cc1onc(-c2ccccc2Cl)c1C(=O)N[C@@H]1C(=O)N2[C@@H]1SC(C)(C)[C@@H]2C(=O)[O-].O.[Na+] [Cloxacillin sodium monohydrate] | inactive: 2.59 |

| SMILES | cell-cell fusion (z-score) |
| --- | --- |
| CC(C)(C=O)Cc1cc(C(C)(C)C)c(O)c(C(C)(C)C)c1 | inactive: 2.62 |
| O=c1ncn2nc(Sc3ccc(F)cc3F)ccc2c1-c1c(Cl)cccc1Cl | inactive: 2.27 |
| CCCC(C(=O)OCCN(CC)CC)(c1ccccc1)c1ccccc1.Cl | inactive: 2.93 |
| CCCC(C(=O)OCCN(CC)CC)(c1ccccc1)c1ccccc1.Cl [SKF-525A hydrochloride] | inactive: 3.8 |
| NC1(C(=O)O)CCC1 | inactive: 4.15 |
| CC(C)C[C@H](NC(=O)[C@H](Cc1ccccc1)NC(=O)c1cnccn1)B(O)O [Bortezomib] | inactive: 5.51 |
| Cn1c(=O)c2c(ncn2CCO)n(C)c1=O | inactive: 3.81 |
| C[CH2][Hg][S]c1ccccc1C(=O)[O-].[Na+] | inactive: 1.56 |
| CC(C)(C)C(=O)OCOP(=O)(COCCn1cnc2c(N)ncnc21)OCOC(=O)C(C)(C)C [Adefovir dipivoxil] | inactive: 0.862 |
| NC(=O)C(=O)[O-].[Na+] [Sodium Oxamate] | inactive: 2.89 |
| COC(=O)C1=C(C)NC(C)=C(C(=O)OC2CCCN(Cc3ccccc3)C2)C1c1cccc([N+](=O)[O-])c1.Cl (stereo not drawn) [Benidipine hydrochloride] | inactive: 2.04 |
| CN1C(=O)CC[C@H]1c1cccnc1 [(-)-Cotinine] | inactive: 0.719 |
| COc1cc(OC)c2c(OC)c(-c3ccc4c(c3)OCO4)c(=O)oc2c1 | inactive: 1.84 |
| NC(=O)c1ccc[n+]([C@@H]2O[C@H](COP(=O)([O-])OP(=O)(O)OC[C@H]3O[C@@H](n4cnc5c(N)ncnc54)[C@H](O)[C@@H]3O)[C@@H](O)[C@H]2O)c1 | inactive: 0.657 |
| CC[C@@]1(O)C[C@H](O[C@H]2C[C@H](N(C)C)[C@H](O)[C@H](C)O2)c2c(cc3c(c2O)C(=O)c2c(O)cccc2C3=O)[C@H]1C(=O)OC.Cl | inactive: 4.44 |
| CN1CCc2nc(C(=O)N[C@@H]3C[C@@H](C(=O)N(C)C)CC[C@@H]3NC(=O)C(=O)Nc3ccc(Cl)cn3)sc2C1.Cc1ccc(S(=O)(=O)O)cc1.O [Edoxaban Tosylate Monohydrate] | inactive: 1.69 |
| Clc1ccc2c(c1)C(N1CCNCC1)=Nc1ccccc1O2 [Amoxapine] | inactive: -1.97 |
| CNC(=O)c1cc(Oc2ccc(NC(=O)Nc3ccc(Cl)c(C(F)(F)F)c3)c(F)c2)ccn1 [Regorafenib] | active: -3.64 |
| CC(=O)O[C@@H]1CC2C(C)(C)C(=O)C3OC3[C@]2(C)C2CC[C@@]3(C)[C@H](c4ccoc4)OC(=O)C4OC43[C@@]21C (stereo partly drawn) | inactive: 2.54 |
| OC[C@@H](O)[C@@H](O)[C@@H](O)CO | inactive: 1.97 |
| CCN[C@H]1CN(CCCOC)S(=O)(=O)c2sc(S(N)(=O)=O)cc21 [Brinzolamide] | inactive: 1.37 |
| CC(=O)Oc1cc(-c2coc3cc(OC(C)=O)c(OC(C)=O)c(OC(C)=O)c3c2=O)cc(OC(C)=O)c1OC(C)=O | inactive: 4.13 |
| CCN(CC)CC(=O)Nc1c(C)cccc1C.Cl [Lidocaine hydrochloride] | inactive: 2.81 |

| SMILES | cell-cell fusion (z-score) |
| --- | --- |
| NCCO.NC[C@H]1CC[C@H](C(=O)O)CC1 | inactive: 1.66 |
| O=C(O)c1cc(O)c2c(Cl)cc(Cl)cc2n1 [5,7-Dichlorokynurenic acid] | inactive: 2.28 |
| CCC(C)C(NC)C(=O)O (stereo not drawn) | inactive: 1.93 |
| CC(C)C[C@H](NC(=O)[C@H](Cc1ccccc1)NC(=O)c1cnccn1)B(O)O [Bortezomib (Velcade)] | inactive: 2.34 |
| CCN(CC)CCOc1ccc(/C(=C(\Cl)c2ccccc2)c2ccccc2)cc1.O=C(O)CC(O)(CC(=O)O)C(=O)O | inactive: -0.0935 |
| N[C@@H](Cc1cc(I)c(Oc2ccc(O)c(I)c2)c(I)c1)C(=O)[O-].[Na+] [Liothyronine sodium] | inactive: 0.825 |
| CCCCCCCCCCC(C)(C)C(=O)Nc1c(OC)cc(OC)cc1OC | inactive: 3.48 |
| CC(=O)O[C@H]1C(=O)[C@@]2(C)[C@H]([C@H](OC(=O)c3ccccc3)[C@]3(O)C[C@H](OC(=O)[C@H](O)[C@@H](NC(=O)c4ccccc4)c4ccccc4)C(C)=C1C3(C)C)[C@]1(OC(C)=O)CO[C@@H]1C[C@@H]2O [Paclitaxel] | inactive: -0.838 |
| COc1ccc(-c2coc3cc(OC)cc(OC)c3c2=O)cc1 | inactive: 1.13 |
| C#CCN(C)CCCOc1ccc(Cl)cc1Cl.Cl | inactive: 1.04 |
| CN(NC(=O)CC(=O)NN(C)C(=S)c1ccccc1)C(=S)c1ccccc1 [Elesclomol] | inactive: 1.38 |
| COP(=S)(OC)Oc1ccc(SC)c(C)c1 | inactive: 2.5 |
| CCN(CC)CC(=O)Nc1c(C)cccc1C.Cl.O [Lidocaine Hydrochloride hydrate] | inactive: 2.72 |
| Oc1cc(-c2ccccc2)nc2nc(Cl)ccc12 [7-Chloro-4-hydroxy-2-phenyl-1,8-naphthyridine] | inactive: 1.39 |
| Cc1ccccc1C(OCCN(C)C)c1ccccc1.O=C(O)CC(O)(CC(=O)O)C(=O)O (stereo not drawn) | inactive: 1.99 |
| CC(CCc1ccccc1)NCC(O)c1ccc(O)c(C(N)=O)c1.Cl (stereo not drawn) [Labetalol hydrochloride] | inactive: 1.69 |
| COc1c(C)c2c(c(O)c1C/C=C(\C)CCC(=O)OCCN1CCOCC1)C(=O)OC2 [Mycophenolate Mofetil] | inactive: 0.917 |
| COC1=CC(=O)OC(/C=C/c2ccccc2)C1 (stereo not drawn) | inactive: 2.24 |
| CCOc1ccc2nc(S(N)(=O)=O)sc2c1 | inactive: 1.2 |
| N#Cc1c(Oc2ccc(F)c(NC(=O)Cc3cccc(C(F)(F)F)c3)c2)ccc2nc(NC(=O)C3CC3)sc12 | inactive: 1.72 |
| CCCCc1oc2ccccc2c1C(=O)c1cc(I)c(OCCN(CC)CC)c(I)c1.Cl [Amiodarone hydrochloride] | inactive: -1.55 |
| COc1ccc(C(=O)c2ccc(O)cc2)c(O)c1O | inactive: 1.72 |
